Measured values as given in paper PMC3778407, “Topochemical control of the photodimerization of aromatic compounds by γ-cyclodextrin thioethers in aqueous solution” (Beilstein Journal of Organic Chemistry, 2013).

Tests used:
[1] = parameters: method as in doi:10.1021/j100862a012; conditions: no host, cited from earlier work
[2] = Quantum yield of the photodimerization of COU; type: physicochemical
[3] = Quantum yield of the photodimerization of ANT in γ-CD thioether solution; type: physicochemical; conditions: 6.0 mM γ-CD thioether in water, λ = 350 nm, experimental error ± 5 %
[4] = Quantum yield of the photodimerization of ACE; type: physicochemical; conditions: host concentration 6 mM in water, λ = 300 nm, experimental error ±5%

## C1=Cc2cccc3cccc1c23 [ACE, acenaphthylene]
[1]; ethanol
  Quantum yield Φ of the photodimerization of free ACE: 4%
[1]; toluene
  Quantum yield Φ of the photodimerization of free ACE: 5%
[1]; water/methanol (methanol/water 20% v/v)
  Quantum yield Φ of the photodimerization of free ACE: 3%

## O=c1ccc2ccccc2o1 [COU, coumarin]
[2]; 15 mM aqueous solution of COU, no host
  Quantum yield Φ of the photodimerization of COU: 0.11%

## NCCSC[C@H]1O[C@@H]2O[C@H]3[C@H](O)[C@@H](O)[C@@H](O[C@H]4[C@H](O)[C@@H](O)[C@@H](O[C@H]5[C@H](O)[C@@H](O)[C@@H](O[C@H]6[C@H](O)[C@@H](O)[C@@H](O[C@H]7[C@H](O)[C@@H](O)[C@@H](O[C@H]8[C@H](O)[C@@H](O)[C@@H](O[C@H]9[C@H](O)[C@@H](O)[C@@H](O[C@H]1[C@H](O)[C@H]2O)O[C@@H]9CSCCN)O[C@@H]8CSCCN)O[C@@H]7CSCCN)O[C@@H]6CSCCN)O[C@@H]5CSCCN)O[C@@H]4CSCCN)O[C@@H]3CSCCN [Host 1]
[3]
  Quantum yield Φ of the photodimerization of ANT: 29%

## O=C(O)CSC[C@H]1O[C@@H]2O[C@H]3[C@H](O)[C@@H](O)[C@@H](O[C@H]4[C@H](O)[C@@H](O)[C@@H](O[C@H]5[C@H](O)[C@@H](O)[C@@H](O[C@H]6[C@H](O)[C@@H](O)[C@@H](O[C@H]7[C@H](O)[C@@H](O)[C@@H](O[C@H]8[C@H](O)[C@@H](O)[C@@H](O[C@H]9[C@H](O)[C@@H](O)[C@@H](O[C@H]1[C@H](O)[C@H]2O)O[C@@H]9CSCC(=O)O)O[C@@H]8CSCC(=O)O)O[C@@H]7CSCC(=O)O)O[C@@H]6CSCC(=O)O)O[C@@H]5CSCC(=O)O)O[C@@H]4CSCC(=O)O)O[C@@H]3CSCC(=O)O [Host 2]
[2]; 6.0 mM γ-CD thioether 2, [Na2SO4] 0.0 M, λ = 300 nm
  Quantum yield Φ of the photodimerization of COU: 3.8%
[2]; 6.0 mM γ-CD thioether 2, [Na2SO4] 1.5 M, λ = 300 nm
  Quantum yield Φ of the photodimerization of COU: 13.0%
[3]
  Quantum yield Φ of the photodimerization of ANT: 16%

## O=S(=O)(O)CCSC[C@H]1O[C@@H]2O[C@H]3[C@H](O)[C@@H](O)[C@@H](O[C@H]4[C@H](O)[C@@H](O)[C@@H](O[C@H]5[C@H](O)[C@@H](O)[C@@H](O[C@H]6[C@H](O)[C@@H](O)[C@@H](O[C@H]7[C@H](O)[C@@H](O)[C@@H](O[C@H]8[C@H](O)[C@@H](O)[C@@H](O[C@H]9[C@H](O)[C@@H](O)[C@@H](O[C@H]1[C@H](O)[C@H]2O)O[C@@H]9CSCCS(=O)(=O)O)O[C@@H]8CSCCS(=O)(=O)O)O[C@@H]7CSCCS(=O)(=O)O)O[C@@H]6CSCCS(=O)(=O)O)O[C@@H]5CSCCS(=O)(=O)O)O[C@@H]4CSCCS(=O)(=O)O)O[C@@H]3CSCCS(=O)(=O)O [Host 3]
[3]
  Quantum yield Φ of the photodimerization of ANT: 29%
[4]
  Quantum yield Φ of the photodimerization of ACE: 28^b %

## CC(SC[C@H]1O[C@@H]2O[C@H]3[C@H](O)[C@@H](O)[C@@H](O[C@H]4[C@H](O)[C@@H](O)[C@@H](O[C@H]5[C@H](O)[C@@H](O)[C@@H](O[C@H]6[C@H](O)[C@@H](O)[C@@H](O[C@H]7[C@H](O)[C@@H](O)[C@@H](O[C@H]8[C@H](O)[C@@H](O)[C@@H](O[C@H]9[C@H](O)[C@@H](O)[C@@H](O[C@H]1[C@H](O)[C@H]2O)O[C@@H]9CSC(C)C(=O)O)O[C@@H]8CSC(C)C(=O)O)O[C@@H]7CSC(C)C(=O)O)O[C@@H]6CSC(C)C(=O)O)O[C@@H]5CSC(C)C(=O)O)O[C@@H]4CSC(C)C(=O)O)O[C@@H]3CSC(C)C(=O)O)C(=O)O (stereo partly drawn) [Host 4]
[3]
  Quantum yield Φ of the photodimerization of ANT: 33%

## OCC(O)CSC[C@H]1O[C@@H]2O[C@H]3[C@H](O)[C@@H](O)[C@@H](O[C@H]4[C@H](O)[C@@H](O)[C@@H](O[C@H]5[C@H](O)[C@@H](O)[C@@H](O[C@H]6[C@H](O)[C@@H](O)[C@@H](O[C@H]7[C@H](O)[C@@H](O)[C@@H](O[C@H]8[C@H](O)[C@@H](O)[C@@H](O[C@H]9[C@H](O)[C@@H](O)[C@@H](O[C@H]1[C@H](O)[C@H]2O)O[C@@H]9CSCC(O)CO)O[C@@H]8CSCC(O)CO)O[C@@H]7CSCC(O)CO)O[C@@H]6CSCC(O)CO)O[C@@H]5CSCC(O)CO)O[C@@H]4CSCC(O)CO)O[C@@H]3CSCC(O)CO (stereo partly drawn) [Host 5]
[3]
  Quantum yield Φ of the photodimerization of ANT: 25%

## O=C(O)CCSC[C@H]1O[C@@H]2O[C@H]3[C@H](O)[C@@H](O)[C@@H](O[C@H]4[C@H](O)[C@@H](O)[C@@H](O[C@H]5[C@H](O)[C@@H](O)[C@@H](O[C@H]6[C@H](O)[C@@H](O)[C@@H](O[C@H]7[C@H](O)[C@@H](O)[C@@H](O[C@H]8[C@H](O)[C@@H](O)[C@@H](O[C@H]9[C@H](O)[C@@H](O)[C@@H](O[C@H]1[C@H](O)[C@H]2O)O[C@@H]9CSCCC(=O)O)O[C@@H]8CSCCC(=O)O)O[C@@H]7CSCCC(=O)O)O[C@@H]6CSCCC(=O)O)O[C@@H]5CSCCC(=O)O)O[C@@H]4CSCCC(=O)O)O[C@@H]3CSCCC(=O)O [Host 6]
[3]
  Quantum yield Φ of the photodimerization of ANT: 27%
[4]
  Quantum yield Φ of the photodimerization of ACE: 12^b %

## COCCOCCOCCSC[C@H]1O[C@@H]2O[C@H]3[C@H](O)[C@@H](O)[C@@H](O[C@H]4[C@H](O)[C@@H](O)[C@@H](O[C@H]5[C@H](O)[C@@H](O)[C@@H](O[C@H]6[C@H](O)[C@@H](O)[C@@H](O[C@H]7[C@H](O)[C@@H](O)[C@@H](O[C@H]8[C@H](O)[C@@H](O)[C@@H](O[C@H]9[C@H](O)[C@@H](O)[C@@H](O[C@H]1[C@H](O)[C@H]2O)O[C@@H]9CSCCOCCOCCOC)O[C@@H]8CSCCOCCOCCOC)O[C@@H]7CSCCOCCOCCOC)O[C@@H]6CSCCOCCOCCOC)O[C@@H]5CSCCOCCOCCOC)O[C@@H]4CSCCOCCOCCOC)O[C@@H]3CSCCOCCOCCOC [Host 7]
[3]
  Quantum yield Φ of the photodimerization of ANT: 19%

Where two headings read alike, the source gives them in different places. Marks after values point to notes of the source that are not given here.
